Here are results for two compounds from PubChem BioAssay AID2685 (National Center for Advancing Translational Sciences (NCATS), 2010).

The nature of the assay: qHTS Assay for Lipid Storage Modulators in Drosophila S3 Cells.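 On cell number change: cells counted by Cell Tracker Red CMTPX staining in the red channel.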 Particulars: BODIPY lipid droplet fluorescence, 18-24 h. In outline:
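Drosophila S3 cells got compounds at several concentrations plus oleic acid (400 uM solution). Laser-scanning cytometry with 488 nm excitation read lipid droplets at 500-530 nm and cells at 575-640 nm. Percent activity was relative to 20 uM Triacsin C.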
(In general: In qHTS, concentration-response curves come from the screen itself.)

The mark [1] stands for this setting: measured here: cell number channel AC50, cells fed with added oleic acid.

The AC50 is the concentration giving half of the maximal activity seen.

The list shows a part of the results. These are further read-outs of the screen, such as a control signal, another cell line or another target. No call is given for them. The list favours compounds with an active or inconclusive main result. The note in brackets gives the kind of curve behind each potency; many fits are weak.

Take `COc1cc(/C=C2\C(=N)N3N=C(S(C)(=O)=O)SC3=NC2=O)ccc1OC(=O)c1cccs1`: the AC50 under setting [1] was 0.326 µM [falling, full curve, poor fit].

For `Cc1cc(N2C(=O)C(O)=C(C(=O)c3cc4ccccc4o3)C2c2ccc(Cl)cc2)no1` (centres undefined), the cell number change (measured here: cell count max response, cells fed with added oleic acid) was found to be 70.3%. Further, the AC50 was 29.1 µM [rising, single point] under setting [1] and 29.1 µM [rising, single point] (measured here: lipid fluorescence (Fed channel) AC50, cells fed with added oleic acid).
